Experimental data: US20260070974A1
Results are given in words; binding and its absence hold for the method and conditions named. Some entries that bind do so weakly or less than the wild type.

What was measured:
[1] = target: cynomolgus monkey Siglec-15-his protein (Acrobiosystems, Cat #: SG5-C52H6) (cynomolgus monkey); test: ELISA, coated cynomolgus monkey Siglec-15-his
[2] = target: cynomolgus monkey Siglec-15-his protein (Acrobiosystems, Cat #: SG5-C52H6) (cynomolgus monkey); test: ELISA on coated cynomolgus monkey Siglec-15-his, goat anti-human IgG-HRP, OD450

| binding [1] | binding [2] | Binder |
| --- | --- | --- |
| binds | binds | PR301286 (antibody, human IgG1, kappa, V domains shown) VH: QVQLVESGGGVVQPGKSLRLSCAASGFTFSSYGMHWVRQAPGKGLEWVAVIWIDGSNRYYAASVKGRFTISRDNSKNTLYLQMNSLRAEDTAVYYCTRGYGDYAYVMDVWGQGASVTVSS VL: DIVMTQSPLSLPVTPGEPASISCRSSQSLLPGNGYNYLDWYLQKPGQSPQLLIYLGSNRASGVPDRFSGSGSGTDFTLKISRVEAEDVGIYYCMQALQSPLTFGGGTKVEIKR |
| binds | binds | PR301285 (antibody, human IgG1, kappa, V domains shown) VH: QVQLQESGPGLVKPSETLSLTCTVSGGSMISYYWSWLRQPPGKGLEWIGYIYYSGNTNYNPSLKSRITIAVDTSKNQFSLKLNSVTAADTAVYYCARERELHPYYFDYWGQGTLVTVSS VL: DIQLTQSPSFLSASVGDRVTITCRASQGIDNYLAWYQQKPGKAPKVLIYAASTLQSGVPSRFSGSGSGTEFTLTISSLQPEDFATYYCQQLNSYPLTFGGGTKVEIKR |
| binds | binds | PR300659 (antibody, human IgG1, kappa, V domains shown) VH: QVQLVESGGGVVQPGRSLRLSCAASGFIFSSYDIYWVRQAPGKGLEWVAVIWHDGSNKYYADSVKGRFTISRDNSKNTVYLQMNSLRAEDTAVYYCARDTHSYGSRIYYDYNYGMDVWGQGTTVTVSS VL: DIQMTQSPSSLSASVGDRVSITCRASQSISSYLNWYQQKPGKAPKLLIYAASSLQSGVPSRFSGSGSGADFTLTISSLQPEDFATYYCQQTYSPPFTFGPGTKVDIKR |
| binds | binds | PR301289 (antibody, human IgG1, kappa, V domains shown) VH: QVQLVQSGAEVKKPGASVKVSCRASGYTFTSYDINWVRQATGQGLEWMGWMNPHSGDTGYAQNFQGRVTMTWNTSISTAYMELSSLRSEDTAVYYCARRRVGVYYYGMDVWGQGTTVTVSS VL: ENVLTQSPGTLSLSPGERATLSCRASQSVSSSYFGWYQQKPGQAPRLLIYGASSRATGIPDRFSGSGSGTDFTLTISRLEPEDFAVYYCQQYGSSPITFGQGTRLEIKR |
| binds | binds | PR300670 (antibody, human IgG1, kappa, V domains shown) VH: QVQLVESGGGVVQPGRSLRLSCVASGFTFSTYGIHWVRQAPGKGLDWVSVIWYDGSHKYYADSVQDRFTISRDNSKNTLYLQMNSLRAEDTAVYYCAREGMITMVRGVIIDYQYHGMDVWGQGTTVTVSS VL: DIQMTQSPSTLSASVGDRVTITCRASQSIGRRLAWYQQKPGKAPKLLIYKASSLESGVPSRFSGSGSGTEFTLTISSPQPDDFATYYCQQYHSYSYTFGQGTKLEIKR |
